# Binding screen against folded nucleic acids

Calls as published in the ROBIN set (doi:10.1002/anie.202211358).

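The test is a small-molecule microarray: each compound is printed twice on a reactive slide, and binding shows as fluorescence of the labelled oligonucleotide after washing. For the PreQ1, TPP and SAM-II riboswitches the laboratory earlier reported (doi:10.1038/s41467-019-09493-3) 1 µM RNA, 2 h, and a rule that included a mean Z-score above 3 (spot signal-to-noise against the whole library), a score well above that on a control array, and duplicate spots agreeing (coefficient of variation under 100). The data file gives only the calls; its cut-offs may differ, and compounds hitting several targets are kept. The calls come from the array alone, and fixing a compound to the slide can hide its binding.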
“hit” means called a hit, “no hit” means screened and not called a hit.
The compounds are a random part of those screened.
A target missing from an entry has no call listed here.
A dash means that no call is listed here.

Targets (5′ to 3′):
PreQ1: PreQ1 riboswitch RNA pseudoknot, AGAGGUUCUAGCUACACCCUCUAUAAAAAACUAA. From B. subtilis. Hit rate about 0.7% of about 24,000 compounds.
TPP: TPP riboswitch RNA three-way junction, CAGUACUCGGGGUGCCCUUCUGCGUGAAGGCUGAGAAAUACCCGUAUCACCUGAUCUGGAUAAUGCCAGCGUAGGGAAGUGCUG. Hit rate about 0.7% of about 24,000 compounds.
SAM-II: SAM-II riboswitch RNA pseudoknot, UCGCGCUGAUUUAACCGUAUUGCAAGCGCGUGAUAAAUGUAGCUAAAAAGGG. Hit rate about 1% of about 21,000 compounds.

structure,PreQ1,TPP,SAM-II
Clc1ccc2c(c1)C(N1CCNCC1)=Nc1ccccc1O2,no hit,no hit,no hit
O=CN/C=C\c1cc(O)ccc1O,no hit,no hit,no hit
CCOC(=O)C1=C(N)OC(C)=C(C(=O)OC(C)C)C12C(=O)Nc1ccc(Br)cc12 (stereo not shown),no hit,no hit,no hit
Cn1ncc2c(N[C@@H]3CS(=O)(=O)C[C@H]3O)nc(-c3ccncc3)nc21,no hit,no hit,no hit
OC(CN1CCCCC1)Cn1ccc2ccccc21 (stereo not shown),no hit,no hit,no hit
COCCNc1oc(-c2cccc(C)c2)nc1S(=O)(=O)c1ccc(C)cc1,no hit,hit,-
O=C(CCCc1ccc(Cl)cc1)N1CC(O)CO1 (stereo not shown),no hit,no hit,no hit
Cc1c(C2CC2(C)C)nc(N)c(C#N)c1-c1cccc(OCC(N)=O)c1 (stereo not shown),no hit,no hit,no hit
C[C@]12CCC3c4ccc(O)cc4CCC3C1CCC2=O (stereo partly shown),no hit,no hit,no hit
CCCn1nnc(NCc2ccc(OCc3cccc(Cl)c3)c(OC)c2)n1,no hit,no hit,-
CCOC(=O)c1ccccc1Nc1cc(C)nc2nc(C)nn12,no hit,no hit,no hit
Nc1cc(-c2ccccc2CN2CCOCC2)ccn1,no hit,no hit,no hit
COc1ccccc1CCNCc1ccccc1C(F)(F)F,no hit,no hit,no hit
Clc1cccc(-c2nc(NCCN3CCOCC3)nc3c2COc2ccccc2-3)c1,no hit,no hit,-
C=CCn1c(N)c(C(=O)NC2CCCCC2)sc1=S,no hit,no hit,no hit
OCCN1CCN(C(=S)NCCc2ccccc2)CC1,no hit,no hit,no hit
Cc1n[nH]c(C)c1CCc1nc2c3ccccc3nc(NCc3ccccc3Cl)n2n1,no hit,no hit,-
Cc1cc(N)n(-c2ccc(Oc3ccccc3)c(S(=O)(=O)O)c2)n1,no hit,no hit,no hit
Cc1cc(NCC2CCN(c3ccc(F)cc3)C2)nc(N)n1 (stereo not shown),no hit,no hit,no hit
CCn1nc(C(C)C)cc1C(=O)N[C@@H]1CNCC[C@H]1O,no hit,no hit,no hit
COc1ccc(CCNCC(=O)Nc2c3c(nc4ccccc24)N(C)CC3)cc1OC.O=C(O)C(=O)O,no hit,no hit,no hit
O=C(N[C@@H]1c2ccccc2C2(CCNCC2)[C@H]1OCc1cccnc1)c1ccoc1,no hit,no hit,no hit
Nc1nnc(-c2ccc(O)cc2)s1,no hit,no hit,no hit
COc1ccc(NC2c3ncccc3C(=O)N2Cc2cccs2)cc1Cl (stereo not shown),no hit,no hit,no hit
c1cncc(-c2nc3c(c(NC[C@@H]4CCCO4)n2)CCNC3)c1,no hit,no hit,no hit
Cn1ccnc1-c1c(-c2ccccc2)ncn1CC1CNCCO1 (stereo not shown),no hit,no hit,no hit
CC(C)N(CCC(=O)c1ccc2ccccc2c1)Cc1ccccc1,no hit,no hit,no hit
Cn1c(N2CC[C@H](O)C2)nc2cc(C(=O)N[C@H]3CC[C@H](O)CC3)ccc21,no hit,no hit,no hit
CC(C)Nc1nc(N2CCOCC2)nc(N2CC3CC(C2)c2cccc(=O)n2C3)n1 (stereo not shown),no hit,no hit,no hit
O=C(O)C(=O)O.c1ccc(COc2ccccc2OCCNCCN2CCOCC2)cc1,no hit,no hit,no hit
Cc1nn(C(=O)c2c[nH]c3ccccc23)c(N)c1-c1ccccc1,no hit,no hit,no hit
COc1cc(CNC2CCCc3ccccc32)cc(OC)c1 (stereo not shown),no hit,no hit,no hit
Cc1c(S(=O)(=O)c2ccc(Cl)cc2)c(N)n(Cc2ccccn2)c1C,no hit,no hit,no hit
O=C(O)C1(O)CCN(c2nccc(N3CCCC(O)C3)n2)CC1 (stereo not shown),no hit,no hit,no hit
CCOC(=O)C1(C(F)(F)F)NN(c2ccccn2)C(N)=C1C#N (stereo not shown),no hit,no hit,no hit
Nc1ncc(-c2ccc([N+](=O)[O-])cc2)cn1,no hit,no hit,no hit
COc1cc2c(cc1OC)C(c1ccccc1O)NCC2 (stereo not shown),no hit,no hit,no hit
c1ccc(NN(Cc2ccncc2)c2ccccc2)cc1,no hit,no hit,no hit
Cc1ccc2nc(Nc3nc(C)cc(-c4ccccc4)n3)nc(O)c2c1,no hit,no hit,no hit

The last 3 entries again:

* COc1cc2c(cc1OC)C(c1ccccc1O)NCC2 (stereo not shown) : PreQ1: no hit; TPP: no hit; SAM-II: no hit
* c1ccc(NN(Cc2ccncc2)c2ccccc2)cc1 : PreQ1: no hit; TPP: no hit; SAM-II: no hit
* Cc1ccc2nc(Nc3nc(C)cc(-c4ccccc4)n3)nc(O)c2c1 : PreQ1: no hit; TPP: no hit; SAM-II: no hit